According to PMC9456277:
No constants are given. Whether binding was seen depends on the method and setting. Tags and fused reporters may be left off the sequences shown.

What was measured:
[1] = target: T1, GST-tagged N-terminal ICD of TRPC4 (mouse) (UniProt Q9QUQ5); assay: ELISA; N-terminal TRPC-ICDs or TRPC1 peptide substrate-coated (10 µg/mL in PBS, 4 °C overnight), increasing concentrations of NCAM-ICDs or CHL1-ICD for 1.5 h at room temperature; detection with NCAM antibody P61 or GTX133217 or CHL1 antibody C-18; both purified
T1 sequence: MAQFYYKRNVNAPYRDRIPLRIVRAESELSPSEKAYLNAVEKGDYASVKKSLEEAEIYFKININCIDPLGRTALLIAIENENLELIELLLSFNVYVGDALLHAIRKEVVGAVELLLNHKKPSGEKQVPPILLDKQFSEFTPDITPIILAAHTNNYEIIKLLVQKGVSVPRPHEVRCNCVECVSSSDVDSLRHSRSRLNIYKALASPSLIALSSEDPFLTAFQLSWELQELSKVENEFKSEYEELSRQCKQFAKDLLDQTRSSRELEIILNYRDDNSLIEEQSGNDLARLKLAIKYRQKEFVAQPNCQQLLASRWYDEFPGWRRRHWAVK

[2] = target: T2, GST-tagged N-terminal ICD of TRPC5 (mouse) (UniProt Q9QX29); assay: as above
T2 sequence: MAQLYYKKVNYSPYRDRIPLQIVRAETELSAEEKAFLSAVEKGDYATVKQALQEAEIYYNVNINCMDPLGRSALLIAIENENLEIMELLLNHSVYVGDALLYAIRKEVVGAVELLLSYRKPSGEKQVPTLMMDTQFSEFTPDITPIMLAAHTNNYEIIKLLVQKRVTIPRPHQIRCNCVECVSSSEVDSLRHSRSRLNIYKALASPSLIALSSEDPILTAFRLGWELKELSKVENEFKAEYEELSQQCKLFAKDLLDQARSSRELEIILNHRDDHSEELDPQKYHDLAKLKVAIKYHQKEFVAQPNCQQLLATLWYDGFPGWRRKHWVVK

With “His-tagged NCAM140-ICD with deletion of the C-terminal part (rat) (domain or fragment)” the binding [1] was “no binding” and the binding [2] was “no binding”.

“His-tagged NCAM140-ICD with deletion of the N-terminal part (rat) (domain or fragment)” was tested, and the binding [1] was “no binding” and the binding [2] was “no binding”.
